In paper PMC10853261:
Results are given in words; binding and its absence hold for the method and conditions named. Binding seen in cells or lysates may run through a third protein. Some entries that bind do so weakly or less than the wild type.

Protein sequences, listed by entry. Tags and fused reporters are not part of them.
UniProt O35739: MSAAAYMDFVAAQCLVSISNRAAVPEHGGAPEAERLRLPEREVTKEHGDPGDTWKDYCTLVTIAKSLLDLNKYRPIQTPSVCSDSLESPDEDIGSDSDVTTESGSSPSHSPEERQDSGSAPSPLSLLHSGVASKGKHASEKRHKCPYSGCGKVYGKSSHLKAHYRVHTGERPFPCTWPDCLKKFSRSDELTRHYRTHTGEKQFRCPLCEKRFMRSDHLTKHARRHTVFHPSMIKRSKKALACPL
UniProt P70288: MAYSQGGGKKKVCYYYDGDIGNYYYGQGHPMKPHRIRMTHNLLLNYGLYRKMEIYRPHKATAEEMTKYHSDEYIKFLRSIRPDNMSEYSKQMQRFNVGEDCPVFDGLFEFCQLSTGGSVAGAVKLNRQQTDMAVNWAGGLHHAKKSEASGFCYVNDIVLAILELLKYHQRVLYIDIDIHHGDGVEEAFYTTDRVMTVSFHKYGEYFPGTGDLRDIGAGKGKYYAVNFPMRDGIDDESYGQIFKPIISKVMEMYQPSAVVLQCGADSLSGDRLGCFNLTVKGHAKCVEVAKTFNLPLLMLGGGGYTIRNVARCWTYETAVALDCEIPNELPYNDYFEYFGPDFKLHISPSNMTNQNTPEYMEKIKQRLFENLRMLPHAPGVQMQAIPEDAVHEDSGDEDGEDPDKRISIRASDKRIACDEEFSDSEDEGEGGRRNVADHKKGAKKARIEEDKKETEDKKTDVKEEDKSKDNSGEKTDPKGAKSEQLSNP
UniProt O09106: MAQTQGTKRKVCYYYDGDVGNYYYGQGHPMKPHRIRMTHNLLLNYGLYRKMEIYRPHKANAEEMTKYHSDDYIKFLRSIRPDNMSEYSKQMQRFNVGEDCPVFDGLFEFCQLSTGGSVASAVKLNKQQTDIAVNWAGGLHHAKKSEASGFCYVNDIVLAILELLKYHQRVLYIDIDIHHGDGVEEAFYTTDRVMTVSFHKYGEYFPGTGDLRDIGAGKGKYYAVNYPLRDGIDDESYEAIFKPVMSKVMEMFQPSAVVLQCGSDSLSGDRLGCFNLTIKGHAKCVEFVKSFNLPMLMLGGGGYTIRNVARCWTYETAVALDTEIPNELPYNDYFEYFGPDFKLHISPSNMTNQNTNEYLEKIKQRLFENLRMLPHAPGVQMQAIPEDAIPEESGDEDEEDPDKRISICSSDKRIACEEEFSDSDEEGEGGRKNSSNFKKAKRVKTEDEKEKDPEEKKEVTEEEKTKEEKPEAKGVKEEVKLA

T1: SIN3A (mouse (endogenous in mouse peritoneal macrophages)) (UniProt Q60520)
T1 sequence: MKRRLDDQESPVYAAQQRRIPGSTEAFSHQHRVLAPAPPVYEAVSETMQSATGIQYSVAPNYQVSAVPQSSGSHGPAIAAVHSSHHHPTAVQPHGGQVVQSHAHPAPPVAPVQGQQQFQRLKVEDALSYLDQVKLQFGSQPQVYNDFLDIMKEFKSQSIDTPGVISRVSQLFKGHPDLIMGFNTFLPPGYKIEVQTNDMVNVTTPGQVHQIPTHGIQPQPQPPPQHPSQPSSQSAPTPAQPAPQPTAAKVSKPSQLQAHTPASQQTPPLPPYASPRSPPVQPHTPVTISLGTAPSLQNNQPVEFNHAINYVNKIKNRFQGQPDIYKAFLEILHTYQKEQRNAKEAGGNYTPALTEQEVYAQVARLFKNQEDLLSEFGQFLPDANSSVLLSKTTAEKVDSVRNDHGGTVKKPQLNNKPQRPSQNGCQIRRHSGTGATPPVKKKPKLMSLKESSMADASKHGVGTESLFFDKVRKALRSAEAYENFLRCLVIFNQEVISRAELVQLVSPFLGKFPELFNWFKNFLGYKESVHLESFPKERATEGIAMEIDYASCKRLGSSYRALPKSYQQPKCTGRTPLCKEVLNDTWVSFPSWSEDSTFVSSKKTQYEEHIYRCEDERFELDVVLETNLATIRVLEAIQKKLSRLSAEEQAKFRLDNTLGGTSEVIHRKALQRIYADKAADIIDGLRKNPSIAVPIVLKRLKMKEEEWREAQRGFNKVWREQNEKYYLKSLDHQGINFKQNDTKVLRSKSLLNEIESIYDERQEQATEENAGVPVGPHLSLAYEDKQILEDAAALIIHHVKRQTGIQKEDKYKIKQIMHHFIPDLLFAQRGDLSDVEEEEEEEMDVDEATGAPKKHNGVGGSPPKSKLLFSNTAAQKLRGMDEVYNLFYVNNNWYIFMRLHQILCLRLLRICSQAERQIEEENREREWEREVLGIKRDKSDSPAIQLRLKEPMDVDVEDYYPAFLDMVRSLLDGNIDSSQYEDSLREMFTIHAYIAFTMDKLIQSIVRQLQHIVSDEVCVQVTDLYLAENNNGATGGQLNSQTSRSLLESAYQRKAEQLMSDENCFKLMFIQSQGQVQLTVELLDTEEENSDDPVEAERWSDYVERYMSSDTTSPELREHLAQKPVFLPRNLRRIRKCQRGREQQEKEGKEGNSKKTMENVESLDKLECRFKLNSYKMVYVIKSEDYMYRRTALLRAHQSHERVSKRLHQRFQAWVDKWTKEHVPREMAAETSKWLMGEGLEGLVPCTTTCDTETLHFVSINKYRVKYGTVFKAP

B1: SIN3A (protein, UniProt Q60520 1-1274)
chain: T1 sequence

molecular target: Krüppel-like factor 9 (mouse (endogenous in mouse peritoneal macrophages)) (UniProt O35739); assay: co-IP; whole-cell lysates of mPMs immunoprecipitated with antibodies against KLF9 or SIN3A, then immunoblotted for SIN3A, HDAC1, HDAC2 or KLF9; endogenous proteins

binding, binds:
HDAC2 (from UniProt P70288 1-488) (enzyme)
HDAC1 (from UniProt O09106 1-482) (enzyme)
B1

molecular target: T1, SIN3A (mouse (endogenous in mouse peritoneal macrophages)); assay: as above

binding, binds:
HDAC2 (from UniProt P70288 1-488) (enzyme)
HDAC1 (from UniProt O09106 1-482) (enzyme)
Krüppel-like factor 9 (from UniProt O35739 1-244)
